Data from patent US20130261032A1, “ADDITIVE FOR SUBTERRANEAN TREATMENT” (SCHLUMBERGER TECHNOLOGY CORPORATION, priority 2012, published 2013).

Assay: clay suspension capability, clarity after centrifuging
Settings: 1 and 5 wt % bentonite, 10 minutes at 3000 rpm

Structure (SMILES)	clay suspension after centrifuging
[Cl-].[K+] [KCl, potassium chloride]	the clay settled rapidly
C[N+](C)(C)C.[Cl-] [TMAC, tetra methyl ammonium chloride]	the clay settled rapidly
